Test results published in patent US20250355001A1, “METHOD FOR DETECTING A TAU PROTEIN FRAGMENT IN A SAMPLE” (GTINVENT LIMITED, priority 2022, published 2025).

Assays:
[1] = system: tau fragments in human plasma; experiment: Simoa 3-step assays on human plasma (AD/MCI vs healthy control)
[2] = system: hT40, dGA and dGAE in spiked samples; assay type: binding, human; conditions: S1D12 mAb capture

B1: S1D12: sheep-derived anti-tau core clone; scFv SEQ ID NO: 32, VH 443, VL 444 (protein)
scFv: QVQLQESGPSLVKPSQTLSLTCTVSGFSLNNNAVGWVRQAPGKVPESLVGCSSDGTCYYNSALKSRLDITRDTSKNQISLSLSSVTTDDAAVYYCTRGHYSIYGYDYLGTIDYWGPGLLVTVSSEGKSSGASGESKVDDQAVLTQPSSVSGSLGQRVSITCSGSSSNVGGGNSVGWYQHLPGSGLKTIIYDTNSRPSGVPDRFSGSRSGNTATLTINSLQAEDEGDYYCVTGDSTTHDDLVGSGTRLTVLG
modifications: S1D12 amino acid sequence
Question: With B1 as the molecule, how does the “tau measured relative to NT1 assay” value ([1]; human plasma) read?
Answer: Its value is 1,000 fold.

B2: CA4: anti-tau core clone, Table 10; SEQ ID NO: 368 (protein)
scFv: QVQLQESGPSLVKPSQTLSLTCTVSGFSLTSYSVYWVRQAPGQALEWISIMYASGRVDYNPALKSRLSITRDTSKSQFSLSLSSVTTEDTAVYYCTRGIENWGPGLLVTVSSEGKSSGASGESKVDDDIQVTQSPSSLSASLTERVSITCRTSQSVNNYLSWYQQKPGQAPKLLIYYATRLYTDVPSRFSGSGSGTDYTLTITSLEADDTATYYCLQYDSTPLAFGGGTNVEIK
modifications: CA4 amino acid sequence
Question: B2 was tested. Which “functional lower limit of quantification” value ([1]; CA4 capture, BT2 detector) did it give?
Answer: Its value is “around 1 ng/ml”.

B3: S1D12 mAb: S1D12 reformatted; heavy chain SEQ ID NO: 445, light chain 446 (antibody)
heavy: QVQLQESGPSLVKPSQTLSLTCTVSGFSLNNNAVGWVRQAPGKVPESLVGCSSDGTCYYNSALKSRLDITRDTSKNQISLSLSSVTTDDAAVYYCTRGHYSIYGYDYLGTIDYWGPGLLVTVSSAKTTAPSVYPLAPVCGDTTGSSVTLGCLVKGYFPEPVTLTWNSGSLSSGVHTFPAVLQSDLYTLSSSVTVTSSTWPSQSITCNVAHPASSTKVDKKIEPRGPTIKPCPPCKCPAPNLLGGPSVFIFPPKIKDVLMISLSPIVTCVVVDVSEDDPDVQISWFVNNVEVHTAQTQTHREDYNSTLRVVSALPIQHQDWMSGKEFKCKVNNKDLPAPIERTISKPKGSVRAPQVYVLPPPEEEMTKKQVTLTCMVTDFMPEDIYVEWTNNGKTELNYKNTEPVLDSDGSYFMYSKLRVEKKNWVERNSYSCSVVHEGLHNHHTTKSFSRTPGK
light: QAVLTQPSSVSGSLGQRVSITCSGSSSNVGGGNSVGWYQHLPGSGLKTIIYDTNSRPSGVPDRFSGSRSGNTATLTINSLQAEDEGDYYCVTGDSTTHDDLVGSGTRLTVLGGQPKSSPSVTLFPPSSEELETNKATLVCTITDFYPGVVTVDWKVDGTPVTQGMETTQPSKQSNNKYMASSYLTLTARAWERHSSYSCQVTHEGHTVEKSLSRADCS
modifications: S1D12 mAB Heavy Chain; S1D12 mAB Light Chain
Question: Which results are given for B3?
Answer: binding signal of spiked samples A-D, ELISA #1 ([2]; CB7 scAb detection): Sample C did not generate a binding signal; binding signal of spiked samples A-D, ELISA #2 ([2]; E2E8 scAb detection): Samples A, C and D did not generate any binding signals
